Experimental data: article PMC8830113
No constants are given. Whether binding was seen depends on the method and setting. Binding seen in cells or lysates may run through a third protein. Some results given as binding are weak or reduced against the parent protein; the word gives no strength.

Protein sequences, listed by entry. Tags and fused reporters are not part of them.
UniProt Q9Y297: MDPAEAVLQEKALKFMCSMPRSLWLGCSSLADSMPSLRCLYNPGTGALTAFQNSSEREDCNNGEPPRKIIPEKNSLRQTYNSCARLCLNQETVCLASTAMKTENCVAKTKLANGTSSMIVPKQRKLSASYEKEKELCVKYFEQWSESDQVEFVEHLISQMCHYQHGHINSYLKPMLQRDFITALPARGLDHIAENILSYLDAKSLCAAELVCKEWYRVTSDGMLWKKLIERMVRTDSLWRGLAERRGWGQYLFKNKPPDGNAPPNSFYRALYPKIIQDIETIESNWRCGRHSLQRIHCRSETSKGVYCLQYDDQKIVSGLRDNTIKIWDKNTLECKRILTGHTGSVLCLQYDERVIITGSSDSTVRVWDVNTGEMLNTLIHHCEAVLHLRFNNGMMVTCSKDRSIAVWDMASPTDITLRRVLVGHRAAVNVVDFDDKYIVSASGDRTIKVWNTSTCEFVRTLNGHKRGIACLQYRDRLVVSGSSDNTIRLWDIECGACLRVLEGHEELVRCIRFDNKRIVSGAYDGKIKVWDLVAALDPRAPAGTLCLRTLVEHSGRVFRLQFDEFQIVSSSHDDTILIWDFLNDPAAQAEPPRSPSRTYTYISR
UniProt Q13485: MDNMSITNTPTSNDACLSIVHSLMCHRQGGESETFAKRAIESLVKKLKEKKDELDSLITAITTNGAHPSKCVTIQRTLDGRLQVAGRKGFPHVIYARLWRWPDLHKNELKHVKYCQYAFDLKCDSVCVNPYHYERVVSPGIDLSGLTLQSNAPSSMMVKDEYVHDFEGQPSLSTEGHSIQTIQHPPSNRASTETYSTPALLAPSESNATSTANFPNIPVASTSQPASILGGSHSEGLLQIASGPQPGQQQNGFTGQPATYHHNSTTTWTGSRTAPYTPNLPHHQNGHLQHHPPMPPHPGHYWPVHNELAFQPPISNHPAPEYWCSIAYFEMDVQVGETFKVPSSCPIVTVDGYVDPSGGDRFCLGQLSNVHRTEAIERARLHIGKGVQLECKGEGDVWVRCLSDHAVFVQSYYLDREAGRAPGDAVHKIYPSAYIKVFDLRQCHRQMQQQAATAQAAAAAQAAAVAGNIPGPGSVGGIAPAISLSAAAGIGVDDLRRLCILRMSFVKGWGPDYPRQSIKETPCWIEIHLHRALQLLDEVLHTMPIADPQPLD

Biological target: βTRCP1-Flag (UniProt Q9Y297)
Test: co-IP; anti-Flag IP of βTRCP1-Flag from whole cell extracts of transfected UPCISCC154 (HPV-positive) and UMSCC18 (HPV-negative) cells treated with 5 μM MG132 overnight; E1A lysis buffer (50 mM HEPES pH 7, 250 mM NaCl, 0.1% NP-40), antibody o/n at 4 °C; immunoblot for SMAD4

## SMAD4 (from UniProt Q13485 1-552)
  binding: binds
